Some of the results follow.
Legend:
Experiment in all cases: glycan array binding signal (z-score within array); higher = stronger binding
Settings in all cases: glycan notation: IUPAC condensed, linker removed
[1] = molecular target: Fuc(a1-3)[Gal3S(b1-4)]GlcNAc
In short: (§1)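 Glycan array binding is given as a within-array Z-score, which can be read as non-binding when negative. The arrays, 3228 of them, came from the Consortium for Functional Glycomics database and were retained only where the protein sequence was available. Z-scores were averaged across arrays of the same protein sequence at different concentrations or buffers and across linkers.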

[2] = molecular target: Fuc(a1-3)[Gal3S(b1-4)]GlcNAc6S
In short: as §1

[3] = molecular target: Fuc(a1-3)[GalNAc(b1-4)]GlcNAc
In short: as §1

Fuc(a1-4)GlcNAc = molecular target: Fuc(a1-4)GlcNAc
In short: as §1

Fuc(b1-3)GlcNAc = molecular target: Fuc(b1-3)GlcNAc
In short: as §1

Gal(a1-2)Gal = molecular target: Gal(a1-2)Gal
In short: as §1

Gal(a1-3)Gal = molecular target: Gal(a1-3)Gal
In short: as §1

Gal(a1-3)Gal(b1-3)GlcNAc = molecular target: Gal(a1-3)Gal(b1-3)GlcNAc
In short: as §1

[4] = molecular target: Gal(a1-3)Gal(b1-3)GlcNAc(b1-2)Man(a1-3)[Gal(a1-3)Gal(b1-3)GlcNAc(b1-2)Man(a1-6)]Man(b1-4)GlcNAc(b1-4)GlcNAc
In short: as §1

[5] = molecular target: Gal(a1-3)Gal(b1-3)[Fuc(a1-4)]GlcNAc(b1-2)Man(a1-3)[Gal(a1-3)Gal(b1-3)[Fuc(a1-4)]GlcNAc(b1-2)Man(a1-6)]Man(b1-4)GlcNAc(b1-4)GlcNAc
In short: as §1

Gal(a1-3)Gal(b1-4)Glc = molecular target: Gal(a1-3)Gal(b1-4)Glc
In short: as §1

Gal(a1-3)Gal(b1-4)GlcNAc = molecular target: Gal(a1-3)Gal(b1-4)GlcNAc
In short: as §1

[6] = molecular target: Gal(a1-3)Gal(b1-4)GlcNAc(b1-3)GalNAc
In short: as §1

[7] = molecular target: Gal(a1-3)Gal(b1-4)[Fuc(a1-3)]GlcNAc
In short: as §1

[8] = molecular target: Gal(a1-3)Gal(b1-4)[Fuc(a1-3)]GlcNAc(b1-2)Man(a1-3)[Gal(a1-3)Gal(b1-4)[Fuc(a1-3)]GlcNAc(b1-2)Man(a1-6)]Man(b1-4)GlcNAc(b1-4)GlcNAc
In short: as §1

Gal(a1-3)GalNAc = molecular target: Gal(a1-3)GalNAc
In short: as §1

[9] = molecular target: Gal(a1-3)[Gal(a1-4)]Gal(b1-4)GlcNAc
In short: as §1

[10] = molecular target: Gal(a1-4)Gal(b1-3)GlcNAc(b1-2)Man(a1-3)[Gal(a1-4)Gal(b1-3)GlcNAc(b1-2)Man(a1-6)]Man(b1-4)GlcNAc(b1-4)GlcNAc
In short: as §1

Gal(a1-4)Gal(b1-4)Glc = molecular target: Gal(a1-4)Gal(b1-4)Glc
In short: as §1

Gal(a1-4)Gal(b1-4)GlcNAc = molecular target: Gal(a1-4)Gal(b1-4)GlcNAc
In short: as §1

[11] = molecular target: Gal(a1-4)Gal(b1-4)GlcNAc(b1-2)Man(a1-3)[Gal(a1-4)Gal(b1-4)GlcNAc(b1-2)Man(a1-6)]Man(b1-4)GlcNAc(b1-4)GlcNAc
In short: as §1

[12] = molecular target: Gal(a1-4)Gal(b1-4)GlcNAc(b1-3)Gal(b1-4)Glc
In short: as §1

Gal(a1-4)GlcNAc = molecular target: Gal(a1-4)GlcNAc
In short: as §1

Gal(a1-6)Glc = molecular target: Gal(a1-6)Glc
In short: as §1

Gal(b1-2)Gal = molecular target: Gal(b1-2)Gal
In short: as §1

Gal(b1-3)Gal = molecular target: Gal(b1-3)Gal
In short: as §1

Gal(b1-3)Gal(b1-4)GlcNAc = molecular target: Gal(b1-3)Gal(b1-4)GlcNAc
In short: as §1

[13] = molecular target: Gal(b1-3)Gal(b1-4)GlcNAc(b1-2)Man(a1-3)[Gal(b1-3)Gal(b1-4)GlcNAc(b1-2)Man(a1-6)]Man(b1-4)GlcNAc(b1-4)GlcNAc
In short: as §1

Gal(b1-3)GalNAc = molecular target: Gal(b1-3)GalNAc
In short: as §1

[14] = molecular target: Gal(b1-3)GalNAc(a1-3)[Fuc(a1-2)]Gal(b1-4)Glc
In short: as §1

[15] = molecular target: Gal(b1-3)GalNAc(a1-3)[Fuc(a1-2)]Gal(b1-4)GlcNAc
In short: as §1

[16] = molecular target: Gal(b1-3)GalNAc(b1-3)Gal(a1-4)Gal(b1-4)Glc
In short: as §1

[17] = molecular target: Gal(b1-3)GalNAc(b1-4)Gal(b1-4)Glc
In short: as §1

[18] = molecular target: Gal(b1-3)GalNAc(b1-4)[Neu5Ac(a2-3)]Gal(b1-4)Glc
In short: as §1

Gal(b1-3)GlcNAc = molecular target: Gal(b1-3)GlcNAc
In short: as §1

[19] = molecular target: Gal(b1-3)GlcNAc(a1-6)Gal(b1-4)GlcNAc
In short: as §1

[20] = molecular target: Gal(b1-3)GlcNAc(b1-2)Man(a1-3)[Gal(b1-3)GlcNAc(b1-2)Man(a1-6)]Man(b1-4)GlcNAc(b1-4)GlcNAc
In short: as §1

[21] = molecular target: Gal(b1-3)GlcNAc(b1-2)Man(a1-3)[Gal(b1-3)GlcNAc(b1-2)Man(a1-6)]Man(b1-4)GlcNAc(b1-4)[Fuc(a1-6)]GlcNAc
In short: as §1

[22] = molecular target: Gal(b1-3)GlcNAc(b1-3)Gal(b1-3)GlcNAc
In short: as §1

[23] = molecular target: Gal(b1-3)GlcNAc(b1-3)Gal(b1-4)Glc
In short: as §1

[24] = molecular target: Gal(b1-3)GlcNAc(b1-3)Gal(b1-4)GlcNAc
In short: as §1

[25] = molecular target: Gal(b1-3)GlcNAc(b1-3)Gal(b1-4)GlcNAc(b1-6)[Gal(b1-3)GlcNAc(b1-3)]Gal(b1-4)Glc
In short: as §1

[26] = molecular target: Gal(b1-3)GlcNAc(b1-3)Gal(b1-4)[Fuc(a1-3)]GlcNAc(b1-6)[Gal(b1-3)GlcNAc(b1-3)]Gal(b1-4)Glc
In short: as §1

[27] = molecular target: Gal(b1-3)GlcNAc(b1-3)GalNAc
In short: as §1

[28] = molecular target: Gal(b1-3)GlcNAc(b1-6)Gal(b1-4)GlcNAc
In short: as §1

B1: AcfC (Vibrio cholerae), Q57410 (protein)
chain: MKSKNRFLLISLLSFSTSVFADVNLYGPGGPHVPLIKVAESFEKSQSKRVNITFGPQATWNDKAKKNADILFGASEHSALAIAEGHSERFSKFNIHPVFMREAIILVKKGNPKNIKGMADLLKPGIGIVVNDGAGVSNTSGTAVWEDSVGRMKNVEKLQAFRSNIHVFAPNSGSARKAFVDGEDIDAWITWVDWAIANPTIGDMVRMEDEYRIYRDFNVVLAKNPSSEAIDFFDYLTKSKDAEAIFQHYGWFK
- glycan array binding signal (z-score) [1]: 0.629
- glycan array binding signal (z-score) [2]: -0.131
- glycan array binding signal (z-score) [3]: -0.775
- glycan array binding signal (z-score) (Fuc(a1-4)GlcNAc): -0.557
- glycan array binding signal (z-score) (Fuc(b1-3)GlcNAc): -0.5
- glycan array binding signal (z-score) (Gal(a1-2)Gal): 1.61
- glycan array binding signal (z-score) (Gal(a1-3)Gal): 0.458
- glycan array binding signal (z-score) (Gal(a1-3)Gal(b1-3)GlcNAc): -0.639
- glycan array binding signal (z-score) [4]: -0.58
- glycan array binding signal (z-score) [5]: 4.58
- glycan array binding signal (z-score) (Gal(a1-3)Gal(b1-4)Glc): -0.864
- glycan array binding signal (z-score) (Gal(a1-3)Gal(b1-4)GlcNAc): 0.091
- glycan array binding signal (z-score) [6]: -0.809
- glycan array binding signal (z-score) [7]: -0.828
- glycan array binding signal (z-score) [8]: 1.24
- glycan array binding signal (z-score) (Gal(a1-3)GalNAc): 0.153
- glycan array binding signal (z-score) [9]: -0.149
- glycan array binding signal (z-score) [10]: 0.864
- glycan array binding signal (z-score) (Gal(a1-4)Gal(b1-4)Glc): -0.134
- glycan array binding signal (z-score) (Gal(a1-4)Gal(b1-4)GlcNAc): 0.091
- glycan array binding signal (z-score) [11]: 0.985
- glycan array binding signal (z-score) [12]: 1.49
- glycan array binding signal (z-score) (Gal(a1-4)GlcNAc): 0.322
- glycan array binding signal (z-score) (Gal(a1-6)Glc): -0.861
- glycan array binding signal (z-score) (Gal(b1-2)Gal): -0.23
- glycan array binding signal (z-score) (Gal(b1-3)Gal): -0.901
- glycan array binding signal (z-score) (Gal(b1-3)Gal(b1-4)GlcNAc): -0.245
- glycan array binding signal (z-score) [13]: 0.281
- glycan array binding signal (z-score) (Gal(b1-3)GalNAc): 0.199
- glycan array binding signal (z-score) [14]: 0.135
- glycan array binding signal (z-score) [15]: -0.422
- glycan array binding signal (z-score) [16]: -0.791
- glycan array binding signal (z-score) [17]: 0.777
- glycan array binding signal (z-score) [18]: -1.36
- glycan array binding signal (z-score) (Gal(b1-3)GlcNAc): 0.247
- glycan array binding signal (z-score) [19]: -0.401
- glycan array binding signal (z-score) [20]: 0.469
- glycan array binding signal (z-score) [21]: 0.321
- glycan array binding signal (z-score) [22]: -0.219
- glycan array binding signal (z-score) [23]: -0.019
- glycan array binding signal (z-score) [24]: -0.979
- glycan array binding signal (z-score) [25]: -1.14
- glycan array binding signal (z-score) [26]: 0.419
- glycan array binding signal (z-score) [27]: 0.918
- glycan array binding signal (z-score) [28]: -0.955
